Values quoted from earlier work as cited in US20240082165A1, “METHODS AND COMPOSITIONS FOR PRECISION RELEASE OF PROBIOTICS TO IMPROVE HUMAN HEALTH” (SEED HEALTH INC., priority 2021, published 2024).
At least one compound was matched to its structure with a doubt left.

Conditions: subcutaneously injected or topically applied

For `CCCC(=O)O` [butyrate], the contact hypersensitivity reaction is given as “reduces the contact hypersensitivity reaction”.
